Values from PubChem BioAssay AID1159590 (NIAID, 2016)
In all, the deposit lists 756 reagents; below is a random part of them. 128 of all reagents (17%) were called active. 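Calls are two-sided: both reduced and increased p65 nuclear entry count as active.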 A number with no mark means an inactive call. Reagents against one gene are numbered here. Reagent sequences are not shown. The record does not give: the amount of reagent.

Screen: 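Which core TLR signalling genes NF-kB activation by Pam3CSK4 depends on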
Cells: mouse RAW264.7 macrophage reporter cells expressing GFP-p65 and a Tnf promoter-mCherry
Reagents: single siRNA against mouse genes
Duration: 48 to 72 hours after siRNA transfection, then 40 minutes of ligand
Conditions: Pam3CSK4 (TLR2/1 agonist) for 40 minutes before fixation; dose not given
Measurement: 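p65 nuclear translocation measured by high-content imaging, shown for each siRNA as a robust z-score averaged across replicates, relative to negative controls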
Reading the numbers: p65 nuclear entry z-score: higher = more p65 moved into nuclei than in negative-control wells
Call rule: In these data the active calls have p65 nuclear entry z-score, replicate mean at about -1.5 or lower, or at about 1.5 or higher
Meaning of the calls: active = strong change, up or down; inactive = little change

{"target gene": "Atf7", "reagent": 1, "p65 nuclear entry z-score, replicate mean": "-1.71 (active)"}
{"target gene": "Atf7", "reagent": 2, "p65 nuclear entry z-score, replicate mean": -1.06}
{"target gene": "Atf7", "reagent": 3, "p65 nuclear entry z-score, replicate mean": 0.097}
{"target gene": "Atf7", "reagent": 4, "p65 nuclear entry z-score, replicate mean": -0.0173}
{"target gene": "Atf7", "reagent": 5, "p65 nuclear entry z-score, replicate mean": "6.52 (active)"}
{"target gene": "Atf7", "reagent": 6, "p65 nuclear entry z-score, replicate mean": 0.0653}
{"target gene": "Il1rl1", "reagent": 1, "p65 nuclear entry z-score, replicate mean": -1.06}
{"target gene": "Il1rl1", "reagent": 2, "p65 nuclear entry z-score, replicate mean": -0.655}
{"target gene": "Il1rl1", "reagent": 3, "p65 nuclear entry z-score, replicate mean": -0.886}
{"target gene": "Il1rl1", "reagent": 4, "p65 nuclear entry z-score, replicate mean": -0.327}
{"target gene": "Il1rl1", "reagent": 5, "p65 nuclear entry z-score, replicate mean": -0.421}
{"target gene": "Il1rl1", "reagent": 6, "p65 nuclear entry z-score, replicate mean": -0.627}
{"target gene": "Cd14", "reagent": 1, "p65 nuclear entry z-score, replicate mean": -0.83}
{"target gene": "Cd14", "reagent": 2, "p65 nuclear entry z-score, replicate mean": "-2.12 (active)"}
{"target gene": "Cd14", "reagent": 3, "p65 nuclear entry z-score, replicate mean": -1.4}
{"target gene": "Cd14", "reagent": 4, "p65 nuclear entry z-score, replicate mean": "2.9 (active)"}
{"target gene": "Cd14", "reagent": 5, "p65 nuclear entry z-score, replicate mean": 1.08}
{"target gene": "Cd14", "reagent": 6, "p65 nuclear entry z-score, replicate mean": -0.654}
{"target gene": "Atf2", "reagent": 1, "p65 nuclear entry z-score, replicate mean": -0.634}
{"target gene": "Atf2", "reagent": 2, "p65 nuclear entry z-score, replicate mean": -1.03}
{"target gene": "Atf2", "reagent": 3, "p65 nuclear entry z-score, replicate mean": -1.41}
{"target gene": "Atf2", "reagent": 4, "p65 nuclear entry z-score, replicate mean": -0.856}
{"target gene": "Atf2", "reagent": 5, "p65 nuclear entry z-score, replicate mean": -0.766}
{"target gene": "Atf2", "reagent": 6, "p65 nuclear entry z-score, replicate mean": -0.223}
{"target gene": "Il6", "reagent": 1, "p65 nuclear entry z-score, replicate mean": -0.997}
{"target gene": "Il6", "reagent": 2, "p65 nuclear entry z-score, replicate mean": -0.2}
{"target gene": "Il6", "reagent": 3, "p65 nuclear entry z-score, replicate mean": 0.178}
{"target gene": "Il6", "reagent": 4, "p65 nuclear entry z-score, replicate mean": 0.748}
{"target gene": "Il6", "reagent": 5, "p65 nuclear entry z-score, replicate mean": -0.683}
{"target gene": "Il6", "reagent": 6, "p65 nuclear entry z-score, replicate mean": -0.534}
{"target gene": "Ticam1", "reagent": 1, "p65 nuclear entry z-score, replicate mean": "-1.62 (active)"}
{"target gene": "Ticam1", "reagent": 2, "p65 nuclear entry z-score, replicate mean": 0.237}
{"target gene": "Ticam1", "reagent": 3, "p65 nuclear entry z-score, replicate mean": -0.488}
{"target gene": "Ticam1", "reagent": 4, "p65 nuclear entry z-score, replicate mean": -0.093}
{"target gene": "Ticam1", "reagent": 5, "p65 nuclear entry z-score, replicate mean": 1.25}
{"target gene": "Ticam1", "reagent": 6, "p65 nuclear entry z-score, replicate mean": 0.176}
{"target gene": "Mapk11", "reagent": 1, "p65 nuclear entry z-score, replicate mean": 0.883}
{"target gene": "Mapk11", "reagent": 2, "p65 nuclear entry z-score, replicate mean": -0.649}
{"target gene": "Mapk11", "reagent": 3, "p65 nuclear entry z-score, replicate mean": -0.267}
{"target gene": "Mapk11", "reagent": 4, "p65 nuclear entry z-score, replicate mean": 0.242}
{"target gene": "Mapk11", "reagent": 5, "p65 nuclear entry z-score, replicate mean": -0.95}
{"target gene": "Mapk11", "reagent": 6, "p65 nuclear entry z-score, replicate mean": 0.412}
{"target gene": "Dusp2", "reagent": 1, "p65 nuclear entry z-score, replicate mean": -0.406}
{"target gene": "Dusp2", "reagent": 2, "p65 nuclear entry z-score, replicate mean": "-2.07 (active)"}
{"target gene": "Dusp2", "reagent": 3, "p65 nuclear entry z-score, replicate mean": -0.187}
{"target gene": "Dusp2", "reagent": 4, "p65 nuclear entry z-score, replicate mean": -0.329}
{"target gene": "Dusp2", "reagent": 5, "p65 nuclear entry z-score, replicate mean": 0.613}
{"target gene": "Dusp2", "reagent": 6, "p65 nuclear entry z-score, replicate mean": -1.21}

Individual results from the list.
Atf2 #4, p65 nuclear entry z-score, replicate mean → -0.856
Entry of Ticam1 #4 under “p65 nuclear entry z-score, replicate mean”: -0.093
Atf2 #2, p65 nuclear entry z-score, replicate mean: -1.03
Under “p65 nuclear entry z-score, replicate mean”, Atf7 #2 shows -1.06
